Results are given in words; binding and its absence hold for the method and conditions named. Some binding calls cover weakened binding; strength is not graded here.
Molecular target: hIL-6R (on the Biacore chip) (human) (UniProt P08887)
Test: SPR (Biacore 3000), Nanobody injected over a high density hIL-6R chip

Amino acid sequences for entries named in this document (tags omitted). Residues count along the entry.
UniProt P08887, residues 20-358: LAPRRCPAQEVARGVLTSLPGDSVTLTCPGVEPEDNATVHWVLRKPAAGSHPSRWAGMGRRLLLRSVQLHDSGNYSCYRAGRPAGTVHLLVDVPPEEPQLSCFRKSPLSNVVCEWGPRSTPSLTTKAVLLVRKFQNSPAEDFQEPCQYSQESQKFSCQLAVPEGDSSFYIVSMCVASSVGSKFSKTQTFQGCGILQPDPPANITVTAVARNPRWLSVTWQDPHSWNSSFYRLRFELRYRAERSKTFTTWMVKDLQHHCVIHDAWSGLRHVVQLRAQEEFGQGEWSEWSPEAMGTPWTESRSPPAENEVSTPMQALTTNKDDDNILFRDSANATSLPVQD

binding | Binder
binds | IL6R201 (108-109EG) (VHH) VHH: EVQLVESGGGLVQPGGSLRLSCAASGFTFSDYDIGWFRQAPGKGREGVSGISSSDGNTYYADSVKGRFTISRDNAKNTLYLQMNSLRPEDTAVYYCAAEPPDSSWYLEGSPEFFKYWGQGTLVTVSS
binds | IL6R201 (102-103QS) (VHH) VHH: EVQLVESGGGLVQPGGSLRLSCAASGFTFSDYDIGWFRQAPGKGREGVSGISSSDGNTYYADSVKGRFTISRDNAKNTLYLQMNSLRPEDTAVYYCAAEPPQSSWYLDGSPEFFKYWGQGTLVTVSS
binds | IL6R201 (108-109QG) (VHH) VHH: EVQLVESGGGLVQPGGSLRLSCAASGFTFSDYDIGWFRQAPGKGREGVSGISSSDGNTYYADSVKGRFTISRDNAKNTLYLQMNSLRPEDTAVYYCAAEPPDSSWYLQGSPEFFKYWGQGTLVTVSS
binds | IL6R201 (55-56EG) (VHH) VHH: EVQLVESGGGLVQPGGSLRLSCAASGFTFSDYDIGWFRQAPGKGREGVSGISSSEGNTYYADSVKGRFTISRDNAKNTLYLQMNSLRPEDTAVYYCAAEPPDSSWYLDGSPEFFKYWGQGTLVTVSS
binds | IL6R201 (102-103ES) (VHH) VHH: EVQLVESGGGLVQPGGSLRLSCAASGFTFSDYDIGWFRQAPGKGREGVSGISSSDGNTYYADSVKGRFTISRDNAKNTLYLQMNSLRPEDTAVYYCAAEPPESSWYLDGSPEFFKYWGQGTLVTVSS
binds | IL6R201 (55-56QG) (VHH) VHH: EVQLVESGGGLVQPGGSLRLSCAASGFTFSDYDIGWFRQAPGKGREGVSGISSSQGNTYYADSVKGRFTISRDNAKNTLYLQMNSLRPEDTAVYYCAAEPPDSSWYLDGSPEFFKYWGQGTLVTVSS
